Assay results published in publication PMC12867144.
These are yes or no findings as the source states them, for the method shown. In cells and extracts the contact can be indirect. Some entries that bind do so weakly or less than the wild type.

Sequences of proteins named here, by UniProt entry; tags and fusion partners are left off. A change or cut given only in a name is not applied to a line headed by its entry. A line that says so, or that is headed by a name, gives the form on record, which may keep a tag or linker.
VCL head (amino acids 1-258) M209L, FLAG-tagged (P18206-2, form named): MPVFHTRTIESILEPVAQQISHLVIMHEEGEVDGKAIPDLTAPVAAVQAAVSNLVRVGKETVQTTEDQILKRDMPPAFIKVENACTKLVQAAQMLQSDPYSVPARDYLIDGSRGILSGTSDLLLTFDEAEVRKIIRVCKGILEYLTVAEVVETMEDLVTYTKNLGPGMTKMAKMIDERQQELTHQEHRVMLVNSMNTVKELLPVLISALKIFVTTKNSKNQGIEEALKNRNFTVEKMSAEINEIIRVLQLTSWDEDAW
VCL tail (amino acids 879-1,066), c-MYC-tagged (P18206-2, form named): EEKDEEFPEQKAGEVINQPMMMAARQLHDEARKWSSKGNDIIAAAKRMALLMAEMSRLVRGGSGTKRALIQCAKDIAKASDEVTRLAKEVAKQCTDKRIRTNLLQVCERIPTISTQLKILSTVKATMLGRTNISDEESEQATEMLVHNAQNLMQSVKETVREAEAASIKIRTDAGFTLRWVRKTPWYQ

Target: VCL head (amino acids 1-258) M209L, FLAG-tagged (human) (UniProt P18206)
Experiment: co-IP; FLAG-tagged VCL head (WT or M209L) and c-MYC-tagged VCL tail coexpressed in HeLa cells; lysates incubated with anti-GFP or anti-FLAG M2 magnetic beads overnight at 4°C, washed four times with lysis buffer, Western blot

**Q.** Which binding does the source give for “VCL tail (amino acids 879-1,066), c-MYC-tagged (from UniProt P18206-2 879-1066) (domain or fragment)” here?
**A.** binds
